Measured values taken from paper PMC9166816.
These are yes or no findings as the source states them, for the method shown. Binding seen in cells or lysates may run through a third protein. A yes stands for co-enrichment or nearness to the bait. Other partners may have been found. Sequences can lack the tags named with a protein.

By UniProt entry, the sequences of proteins in these tests, tags left out.
UniProt Q9ULM6: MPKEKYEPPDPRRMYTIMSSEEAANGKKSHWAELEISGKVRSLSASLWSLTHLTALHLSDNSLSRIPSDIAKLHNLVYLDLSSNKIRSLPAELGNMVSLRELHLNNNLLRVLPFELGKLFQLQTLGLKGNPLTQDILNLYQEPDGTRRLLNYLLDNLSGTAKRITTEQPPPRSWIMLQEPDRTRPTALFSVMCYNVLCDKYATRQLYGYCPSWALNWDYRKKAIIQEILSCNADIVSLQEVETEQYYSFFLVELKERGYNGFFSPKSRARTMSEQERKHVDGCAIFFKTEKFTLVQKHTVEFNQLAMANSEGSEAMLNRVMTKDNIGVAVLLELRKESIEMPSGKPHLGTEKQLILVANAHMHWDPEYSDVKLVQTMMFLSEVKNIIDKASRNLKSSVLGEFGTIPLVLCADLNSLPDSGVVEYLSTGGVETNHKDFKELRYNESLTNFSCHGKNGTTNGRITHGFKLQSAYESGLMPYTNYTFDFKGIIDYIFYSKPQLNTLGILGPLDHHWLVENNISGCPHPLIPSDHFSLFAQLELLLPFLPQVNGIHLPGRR
UniProt Q9UFF9: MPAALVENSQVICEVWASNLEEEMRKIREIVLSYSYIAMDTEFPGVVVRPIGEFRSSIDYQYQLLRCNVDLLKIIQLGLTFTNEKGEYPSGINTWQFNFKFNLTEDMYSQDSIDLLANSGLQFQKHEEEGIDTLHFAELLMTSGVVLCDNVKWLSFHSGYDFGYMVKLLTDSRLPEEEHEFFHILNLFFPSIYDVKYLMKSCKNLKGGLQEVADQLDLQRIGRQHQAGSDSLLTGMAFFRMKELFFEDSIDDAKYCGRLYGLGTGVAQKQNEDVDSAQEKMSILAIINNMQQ
UniProt Q9UIV1: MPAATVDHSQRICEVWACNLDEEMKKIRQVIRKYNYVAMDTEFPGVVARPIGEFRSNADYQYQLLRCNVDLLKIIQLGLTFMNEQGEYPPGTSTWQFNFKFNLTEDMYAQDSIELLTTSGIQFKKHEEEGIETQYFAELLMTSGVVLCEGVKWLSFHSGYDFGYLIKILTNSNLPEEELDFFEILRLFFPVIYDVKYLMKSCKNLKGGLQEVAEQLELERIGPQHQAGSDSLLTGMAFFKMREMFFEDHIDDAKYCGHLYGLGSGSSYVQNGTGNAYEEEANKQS

Molecular target: T1, FLAG and HA-tagged RNF219 (FHA-RNF219), stably expressed in HeLa S3 cells (human) (UniProt Q5W0B1)
T1 sequence: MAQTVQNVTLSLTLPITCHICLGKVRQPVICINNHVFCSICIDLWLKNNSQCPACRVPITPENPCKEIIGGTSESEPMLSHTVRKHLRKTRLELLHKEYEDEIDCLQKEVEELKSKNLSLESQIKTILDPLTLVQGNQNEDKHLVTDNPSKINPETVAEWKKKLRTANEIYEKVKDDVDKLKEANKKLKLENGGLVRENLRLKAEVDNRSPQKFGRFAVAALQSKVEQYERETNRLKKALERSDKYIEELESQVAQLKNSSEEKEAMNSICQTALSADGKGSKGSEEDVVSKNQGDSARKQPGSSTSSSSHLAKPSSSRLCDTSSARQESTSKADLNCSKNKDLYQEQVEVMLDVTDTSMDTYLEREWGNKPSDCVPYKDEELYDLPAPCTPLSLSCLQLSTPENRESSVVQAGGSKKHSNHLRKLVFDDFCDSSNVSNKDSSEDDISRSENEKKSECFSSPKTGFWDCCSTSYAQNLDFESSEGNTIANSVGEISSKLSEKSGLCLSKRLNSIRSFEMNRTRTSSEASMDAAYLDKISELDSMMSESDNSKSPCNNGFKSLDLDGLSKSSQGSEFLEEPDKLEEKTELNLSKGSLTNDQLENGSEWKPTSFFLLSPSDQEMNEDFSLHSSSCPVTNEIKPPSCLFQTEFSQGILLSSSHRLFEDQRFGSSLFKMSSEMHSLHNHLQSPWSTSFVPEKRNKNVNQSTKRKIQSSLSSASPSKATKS
Assay: affinity purification with mass spectrometry; two-step FLAG and HA affinity chromatography from Dignam S100 cytoplasmic extracts of HeLa S3 cells stably expressing FHA-RNF219; bands of SDS-PAGE analysed by tandem mass spectrometry; non-transduced HeLa S3 as mock

| binding | Substance |
| --- | --- |
| binds | CNOT6 (CCR4a), CCR4-NOT deadenylase subunit (from UniProt Q9ULM6 1-557) |
| binds | CNOT8 (CAF1B), CCR4-NOT deadenylase subunit (from UniProt Q9UFF9 1-292) |
| binds | CNOT7 (CAF1A), CCR4-NOT deadenylase subunit (from UniProt Q9UIV1 1-285) |
